Laboratory results as given in PubChem BioAssay AID1671190 (National Center for Advancing Translational Sciences (NCATS), 2021).
The campaign covered roughly 580,000 compounds. About 6,100 (1.1%) were called active. Inconclusive means that the source gave no clear call. Such entries were picked first, then a sample of the others. The call rests on the fitted dose curve; in most records, active means well fitted inhibition curve with a large enough effect; inconclusive means small, poorly fitted or top-dose-only effect, or another doubt; inactive means no such curve, though single readings can be large or run the other way. A potency beside an inconclusive call is a rough fit, not a confirmed value.

The chains behind the UniProt entries cited, without tags or fusion partners. Where a name states a change or a piece, a line headed by the entry shows the natural chain unless it says otherwise.
UniProt P18054: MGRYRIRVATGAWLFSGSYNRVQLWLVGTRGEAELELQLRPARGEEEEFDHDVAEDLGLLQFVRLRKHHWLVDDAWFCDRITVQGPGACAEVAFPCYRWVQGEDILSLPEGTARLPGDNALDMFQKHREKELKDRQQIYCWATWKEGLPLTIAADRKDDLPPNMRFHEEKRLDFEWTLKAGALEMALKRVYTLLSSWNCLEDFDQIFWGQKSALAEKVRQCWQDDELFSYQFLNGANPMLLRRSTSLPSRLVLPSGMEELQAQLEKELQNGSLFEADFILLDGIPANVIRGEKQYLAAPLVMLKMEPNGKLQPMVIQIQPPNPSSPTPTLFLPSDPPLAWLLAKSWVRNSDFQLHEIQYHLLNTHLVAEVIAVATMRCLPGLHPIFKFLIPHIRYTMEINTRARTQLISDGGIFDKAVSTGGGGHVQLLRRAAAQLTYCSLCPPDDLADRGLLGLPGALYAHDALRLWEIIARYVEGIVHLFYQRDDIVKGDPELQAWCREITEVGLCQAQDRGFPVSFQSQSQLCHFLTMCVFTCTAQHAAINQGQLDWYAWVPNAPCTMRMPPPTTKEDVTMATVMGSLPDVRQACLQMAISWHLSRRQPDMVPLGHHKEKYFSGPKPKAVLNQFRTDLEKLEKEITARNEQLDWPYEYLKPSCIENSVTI

biological target: Polyunsaturated fatty acid lipoxygenase ALOX12 (Homo sapiens) (UniProt P18054); test: Primary qHTS assay for inhibitors of human arachidonate 12S-lipoxygenase (ALOX12): Round 2; conditions: purified 12hLO, xylenol orange hydroperoxide absorbance; activity change, negative = inhibition: at 108 µM (top of the series) unless noted
In short: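 Purified human 12hLO (150 nM final) in 25 mM Hepes, 0.01% Triton X-100, pH 7.0 was preincubated 15 min at room temperature with compound. Then 40 uM arachidonic acid was added, 30 min. Hydroperoxide was read by Fe-XO absorbance ratio 573/405 nm.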
On the % scale 0 is the no-effect control and ±100 the full control effect; potency means the concentration at half of the fitted maximal effect.

Row | Compound | activity change, negative = inhibition | Potency
1 | Cc1noc(C)c1C(=O)OCC(=O)c1c(N)n(CC(C)C)c(=O)n(C)c1=O | inactive: -13.9% | 
2 | CCOC(=O)c1ccc(N2Cc3ccccc3C2)cc1O | inactive: -30.6% | 
3 | Cc1cccc(NC(=O)Cn2cccc2-c2nc(-c3ccc(F)cc3)no2)c1 | inactive: 13.6% | 
4 | CCc1ccc(NC(=O)Cn2c(=O)c(-c3ccccc3NC(C)=O)nc3ccccc32)cc1 |  | inconclusive: 89.1 µM [inhibitor, partial curve, poor fit]
5 | O=C(Cc1ccc(NC(=O)C2CCN(C(=O)c3ccccc3)CC2)cc1)Nc1cccc(C(=O)N2CCCC2)c1 |  | inconclusive: 31.6 µM [inhibitor, single point]
6 | O=C(NCc1ccc(F)cc1)c1ccc(CS(=O)(=O)c2ccc(Cl)cc2)o1 |  | inconclusive: 100 µM [inhibitor, partial curve, poor fit]
7 | COc1cc(C2CC(=O)Nc3sc(C(=O)Nc4ccccc4)c(C)c32)ccc1O (stereo unspecified) |  | inconclusive: 10 µM [inhibitor, full curve, poor fit]
8 | C/C(=N\OCC(=O)Nn1c(C)nc2ccccc2c1=O)c1cccs1 |  | inconclusive: 126 µM [inhibitor, single point]
9 | CCOc1ccc(-c2cc(C(=O)NCCCN3CCN(C)CC3)c3ccccc3n2)cc1 |  | inconclusive: 50.1 µM [inhibitor, partial curve, poor fit]
10 | COCCNc1ncnc2c1cnn2-c1ccc(Cl)cc1 |  | active: 14.1 µM
11 | CC(C)c1ccc(NC(=O)c2ccc(N(C)C)cc2)cc1 |  | active: 44.7 µM
12 | COc1ccc(C(=O)N[C@H](C(=O)Nc2nc3c(s2)CCCC3)C(C)C)cc1 |  | inconclusive: 14.1 µM [inhibitor, full curve, poor fit]
13 | COc1ccc(C)cc1NC(=O)CCc1ncc(-c2ccc(C)cc2)o1 |  | inconclusive: 126 µM [inhibitor, single point]
14 | COc1ccc(S(=O)(=O)NC(=O)C2(C)CCN2C(=O)c2cccc(F)c2)cc1 (stereo unspecified) |  | inconclusive: 112 µM [inhibitor, partial curve, poor fit]
15 | Cc1cccc(/C=N\NC(=O)c2ccccc2-n2cccc2)c1 | inactive: 1.78% | 
16 | Nc1ncc(-c2ccccc2)c(-c2ccc(OCc3ccc(F)cc3)cc2O)n1 |  | inconclusive: 39.8 µM [inhibitor, single point]
17 | O=C(c1ccccc1NS(=O)(=O)c1ccc(F)cc1F)N1CCCCC1 |  | inconclusive: 22.4 µM [inhibitor, partial curve, poor fit]
18 | O=C(Cn1c(=O)[nH]c2ccsc2c1=O)N1CCN(c2ccc(F)cc2)CC1 |  | inconclusive: 89.1 µM [inhibitor, partial curve, poor fit]
19 | CS(=O)(=O)Nc1cccc(-c2nc(NCc3cccs3)c3ccccc3n2)c1 |  | inconclusive: 25.1 µM [inhibitor, partial curve]
20 | Clc1ccccc1N/N=C/C(Br)=C/c1ccccc1 |  | inconclusive: 44.7 µM [inhibitor, partial curve, poor fit]
21 | [O-]/C(=C(\C(=S)NCc1ccco1)[n+]1ccccc1)c1ccccc1Br |  | inconclusive: 28.2 µM [inhibitor, single point]
22 | CC(=O)N(O)CCCCCNC(=O)CCC(=O)N(O)CCCCCNC(=O)CCC(=O)N(O)CCCCCNC(=O)CCC(=O)O |  | inconclusive: 89.1 µM [inhibitor, single point]

Row | Compound | activity change, negative = inhibition | Potency
23 | COCCOc1cc(Nc2nnc(C(F)(F)F)s2)c(Cl)cc1Cl | inactive: 45.3% | 
24 | CN(c1ccccc1)c1ccc2nnc(-c3cc(C(=O)N4CC(O)C4)ccn3)n2n1 |  | inconclusive: 31.6 µM [inhibitor, full curve, poor fit]
25 | NC(=S)c1cc2cc(Br)ccc2oc1=O | inactive: -16% | 
26 | COc1ccccc1-n1cc(-c2ccc(C)cc2)[nH]c1=S |  | inconclusive: 35.5 µM [inhibitor, partial curve, poor fit]
27 | Cc1ccsc1C(=O)N(Cc1nnc(-c2ccccc2Cl)o1)C1CC1 | inactive: -5.09% | 
28 | O=C(O)c1cccc(NC(=O)c2ccc(Cl)c(S(=O)(=O)N3CCCCCC3)c2)c1 | inactive: -5.26% | 
29 | C=C(C)Cn1c(SCC(=O)Nc2ccccc2)nc2c1c(=O)[nH]c(=O)n2C | inactive: -24.4% | 
30 | Cc1cccc(-n2c(C)cc(C=C3C(=O)c4ccccc4C3=O)c2C)c1 |  | inconclusive: 35.5 µM [inhibitor, partial curve, poor fit]
31 | COc1ccc(NC(=S)N(Cc2ccc(C)cc2)Cc2ccccn2)cc1 |  | inconclusive: 7.08 µM [inhibitor, full curve]
32 | CC(C)Oc1ccc(Nc2cc3c(cn2)cc(-c2cnn(C)c2)n3C)cc1 |  | inconclusive: 158 µM [inhibitor, partial curve, poor fit]
33 | COc1ccc(C(=O)c2sc(Nc3cccc(F)c3)nc2N)cc1 | inactive: 3.41% | 
34 | Cc1ccc(S(=O)(=O)N2CCCc3nc(-c4ccc(Br)cc4)ccc32)cc1 | inactive: -4.96% | 
35 | CCN(CC)S(=O)(=O)c1cccc(C(=O)OCc2cnc(-c3ccccc3)s2)c1 |  | inconclusive: 44.7 µM [inhibitor, partial curve, poor fit]
36 | CCN(CC)CCNC(=O)c1ccc(NC(=O)c2cccc(S(=O)(=O)N3c4ccccc4CC3C)c2)cc1 (stereo unspecified) | inactive: -9.11% | 
37 | Cc1c(Cl)cnc(NC(=O)COC(=O)[C@@H](NC(=O)c2ccco2)C(C)C)c1Cl |  | inconclusive: 44.7 µM [inhibitor, partial curve, poor fit]
38 | Cc1ccccc1NC(=O)c1ccc2c(Cl)c3c(nc2c1)CCC3 | inactive: -9.8% | 
39 | CCc1cc2ccc(OC)cc2nc1SCC(=O)NNC(=O)c1ccco1 |  | inconclusive: 31.6 µM [inhibitor, partial curve, poor fit]
40 | Cc1cc(Nc2ccc(Br)cc2)n2nc(C)nc2n1 |  | inconclusive: 2.24 µM [inhibitor, partial curve, poor fit]
41 | COC(=O)c1nc2n(n1)C(c1ccccc1F)C(C(=O)Nc1ccc(C)cc1C)=C(C)N2 (stereo unspecified) | inactive: -24.3% | 
42 | Cc1cnc(C(=O)Nc2ccccc2-c2ccc(C)o2)cn1 |  | inconclusive: 3.16 µM [inhibitor, full curve, poor fit]
43 | Cc1csc(NC(=O)C2CCN(C(=O)CSc3nnc(C)n3Cc3ccccc3)CC2)n1 |  | inconclusive: 112 µM [inhibitor, single point]
44 | CCN(C(=O)COC(=O)c1n[nH]c2ccccc12)c1ccccc1 |  | inconclusive: 56.2 µM [inhibitor, partial curve, poor fit]

Row | Compound | activity change, negative = inhibition | Potency
45 | Cc1nc2ccn(Cc3cccs3)c(=O)c2cc1C(=O)N1CCN(c2ccc(F)cc2)CC1 | inactive: -6.58% | 
46 | COc1ccc(-c2ccc(C(=O)O)c(=O)[nH]2)cc1 |  | inconclusive: 15.8 µM [inhibitor, full curve]
47 | Cc1ccc(NC(=O)c2sc(-n3nc(C)c(CCC(C)C)c3C)nc2C)cc1C |  | inconclusive: 100 µM [inhibitor, partial curve, poor fit]
48 | Clc1ccc(/C=N/Nc2c(Cl)cc(Cl)cc2Cl)cc1 |  | inconclusive: 31.6 µM [inhibitor, partial curve, poor fit]
49 | CC1=NS(=O)(=O)NC(C)=C1CCC(=O)Nc1ccc(C)c(C)c1 |  | inconclusive: 63.1 µM [inhibitor, partial curve, poor fit]
50 | Cn1ccc2c(N3c4ccccc4CCc4ccccc43)cc3c(c21)C1CCC3C1 (stereo unspecified) | inactive: -50.3% | 
51 | O=C(NC1C(=O)NNC1c1ccccc1)c1ccccc1 (stereo unspecified) |  | inconclusive: 39.8 µM [inhibitor, partial curve, poor fit]
52 | Cc1cc(C)c(C)c(S(=O)(=O)N2CCN(C(=O)c3ccco3)CC2)c1C |  | inconclusive: 126 µM [inhibitor, single point]
53 | Cc1ccc(C)c(N2CCN(C(=O)c3ccc(CS(=O)Cc4cccc(Cl)c4)o3)CC2)c1 (stereo unspecified) | inactive: 6.86% | 
54 | Cc1ccc(NC(=S)NC(NC(=O)c2ccco2)C(Cl)(Cl)Cl)cc1 (stereo unspecified) |  | inconclusive: 31.6 µM [inhibitor, partial curve, poor fit]
55 | CC(CC(=O)c1ccc(F)cc1)N1CCN(c2ccccc2)CC1 (stereo unspecified) |  | inconclusive: 31.6 µM [inhibitor, partial curve, poor fit]
56 | COc1ccc(CN2CCN(c3ncc(C(=O)Nc4ccccc4)o3)C2=O)cc1 |  | inconclusive: 112 µM [inhibitor, single point]
57 | Cc1cc(C)c(C#N)c(SCc2ccccc2)n1 | inactive: -20% | 
58 | O=C1C2CCCCN2C(=O)N1CCCN1CCN(c2cccc(C(F)(F)F)c2)CC1 (stereo unspecified) |  | inconclusive: 112 µM [inhibitor, single point]
59 | COC[C@@H]1CN(Cc2cccc(OC)c2)C[C@H]1C(=O)NC1CC1 | inactive: 42.4% | 
60 | COc1ccc(C(=O)COC(=O)c2cccnc2Cl)c(OC)c1 |  | inconclusive: 50.1 µM [inhibitor, partial curve, poor fit]
61 | O=c1[nH]nc(Cc2ccc(-c3ccc(Cl)cc3)o2)c2ccccc12 |  | inconclusive: 5.62 µM [inhibitor, partial curve]
62 | O=C(NC1CCCCC1)C(c1ccccc1)N1CCC2(CC1)OCCO2 (stereo unspecified) | inactive: 0% | 
63 | COC(=O)C1=C(C)N(Cc2cccc(C(F)(F)F)c2)C(=NCc2ccc(C(F)(F)F)cc2)NC1c1ccccc1 (stereo unspecified) |  | inconclusive: 50.1 µM [inhibitor, partial curve, poor fit]
64 | Cc1ccc(N2CCC(N[C@@H]3CC[C@@H](N)C3)CC2)cc1Cl | inactive: 8.06% | 
65 | CCN(CC)C(=O)c1sc(NC(=O)c2ccc(Br)o2)c(C(=O)OC)c1C |  | inconclusive: 112 µM [inhibitor, partial curve, poor fit]
66 | COc1ccc(C(=O)/C=C/c2c(F)cccc2F)cc1CC(=O)O |  | inconclusive: 20 µM [inhibitor, partial curve, poor fit]

A different layout for three compounds above:

| Row | Compound | activity change, negative = inhibition | Potency |
| --- | --- | --- | --- |
| 63 | COC(=O)C1=C(C)N(Cc2cccc(C(F)(F)F)c2)C(=NCc2ccc(C(F)(F)F)cc2)NC1c1ccccc1 (stereo unspecified) |  | inconclusive: 50.1 µM [inhibitor, partial curve, poor fit] |
| 64 | Cc1ccc(N2CCC(N[C@@H]3CC[C@@H](N)C3)CC2)cc1Cl | inactive: 8.06% |  |
| 65 | CCN(CC)C(=O)c1sc(NC(=O)c2ccc(Br)o2)c(C(=O)OC)c1C |  | inconclusive: 112 µM [inhibitor, partial curve, poor fit] |
